B1: GapC (protein, UniProt Q8DVV3 1-337)
chain: MVVKVGINGFGRIGRLAFRRIQNVEGVEVTRINDLTDPNMLAHLLKYDSTQGRFDGNVEVKEGGFEVNGKFVKVSAERDPEQIDWAADGVEIVLEATGFFASKAAAEKHLHANGGAKKVVITAPGGNDIKTIVFNTNHDVLDGTETVISGASCTTNCLAPMAKALHDNFSIKEGLMTTIHAYTGDQMVLDGPHRKGDLRRARAAAANIVPNSTGAAKAIGLVIPELNGKLDGAAQRVPVPTGSVTELVAVLDKKVTVDEVNAAMKAAANESYGYTEDPIVSSDIVGMSFGSLFDATQTKVLDVDGKQLVKVVSWYDNEMSYTSQLVRTLEYFAKIAK
B2: GuaB (protein, UniProt Q8DRR2 1-493)
chain: MSNWDTKFLKKGYTFDDVLLIPAESHVLPNEVSMQTKLAKNLTLNIPIITAAMDTVTDSKMAIAIARAGGLGVVHKNMSIKEQAEEVRKVKRSENGVIIDPFFLTPEHKVSEAEELMQRYRISGVPVVETLDNRKLIGIITNRDMRFISDYETPISEHMTSEKLVTAPVGTDLETAERILHEHRIEKLPLIDEKGRLSGLITIKDIEKVIEFPNAAKDEFGRLLVAGAVGVTSDTFERAEALFEAGADAIVIDTAHGHSAGVLRKIAEIRAHFPDRTLIAGNIATAEGARALYEAGVDVVKVGIGPGSICTTRVVAGVGVPQITAIYDAASIAREYGRTIIADGGIKYSGDIVKALAAGGNAVMLGSMFAGTDEAPGETEIFQGRKFKTYRGMGSIAAMKKGSSDRYFQGSVNEANKLVPEGIEGRVAYKGAAADIVFQMLGGIRSGMGYVGAANLKELHENAQFIEMSGAGLIESHPHDVQITNEAPNYSVQ
B3: FtsZ (protein, UniProt Q8DVD9 1-434)
chain: MAFSFDAASVQGAVIKVIGVGGGGGNAINRMIDEGVAGVEFIAANTDIQALSSSKAETVIQLGPKLTRGLGAGGQPEIGRKAAEESEEALTEALTGADMVFITAGMGGGSGTGAAPVIARIAKGLGSLTVAVVTRPFGFEGSKRGNYAIEGINELRDEVDTLLIISNNNLLEIVDKKTPLLEALSEADNVLRQGVQGITDLITSPGLINLDFADVKTVMASKGNALMGIGIGTGEERVVEAARKAIYSPLLETTIDGAEDVIVNVTGGLDMTLTEAEEASEIVNQAAGHGVNIWLGTSIDDSMKDEIRVTVVATGVRPDKADQVSGIRRQASSYTQPRAQQQAPSSNSAQPNFERRQNFDFDLNESPEMPAAEPQQTQSSSEPQQSAFGDWNLRRENIARPTEGEIDSQLKMSSFSADSDDDDELETPPFFKNR
B4: GroEL (protein, UniProt Q8CWW6 1-542)
chain: MAKDIKFSADARSSMVRGVDILADTVKVTLGPKGRNVVLEKSFGSPLITNDGVTIAKEIELEDHFENMGAKLVSEVASKTNDIAGDGTTTATVLTQAIVREGLKNVTAGANPIGIRRGIETAVATAVDELKAIAQPVSGKEAIAQVAAVSSRSEKVGEYVSEAMEKVGNDGVITIEESRGMETELDVVEGMQFDRGYLSQYMVTDNEKMVADLENPYLLITDKKISNIQDVLPLLEEVLKTNRPLLIIADDVDGEALPTLVLNKIRGTFNVVAVKAPGFGDRRKAMLEDIAVLTGGTVITEDLGLELKDTTIDALGQAARVTVDKDSTVIVEGSGGKEAVANRVNLIKSQIETATSDFDREKLQERLAKLSGGVAVIKVGAATETELKEMKLRIEDALNATRAAVEEGIVAGGGTALINVIEKVAALDLTDDAATGRNLVLRALEEPVRQIAKNAGYEGSVIIDKLKNSSAGTGFNAANGEWVDMIDAGIIDPVKVTRSALQNAASVASLILTTEAVVADHPAPEAPAAAPAMDPSMMGGMM
B5: LivG (protein, UniProt Q8DSU3 1-254)
chain: MALLDVKNLTKNFGGLTAVGDVTLELNEGELVGLIGPNGAGKTTLFNLLTGVYEPSEGSVELDGTLLNGKTPYKIASLGLSRTFQNIRLFKNMTVIENVLVGMENTRNPHLFSSFLRLPSFYSNETDLQEKAIELLKIFNLDDKADTLAKNLPYGQQRRLEIVRALATKPKILFLDEPAAGMNPQETAELTELIRQIKEEFSITIMLIEHDMSLVMDVTERIYVLEYGRLIAQGTPEEIKHNKRVIEAYLGGEA
B6: Ftf (protein, UniProt P11701 37-795)
chain: DEANSTQVSSELAERSQVQENTTASSSAAENQDKTEVKETPSTNPAAATVENTDQTTKVITDNAAVESKASKTKDQAATVTKTSASTPEVGQTNEKAKATKEADITTPKNTIDEYGLTEQARKIATEAGINLSSLTQKQVEALNKVKLTSDAQTGHQMTYQEFDKIAQTLIAQDERYAIPYFNAKAIKNMKAATTRDAQTGQIADLDVWDSWPVQDAKTGEVINWNGYQLVVAMMGIPNTNDNHIYLLYNKYGDNNFDHWKNAGSIFGYNETPLTQEWSGSATVNEDGSLQLFYTKVDTSDKNSNNQRLATATVNLGFDDQDVRILSVENDKVLTPEGGDGYHYQSYQQWRSTFTGADNIAMRDPHVIEDENGDRYLVFEASTGTENYQGEDQIYNFTNYGGSSAYNVKSLFRFLDDQDMYNRASWANAAIGILKLKGDKKTPEVDQFYTPLLSSTMVSDELERPNVVKLGDKYYLFTASRLNHGSNNDAWNKANEVVGDNVVMLGYVSDQLTNGYKPLNNSGVVLTASVPADWRTATYSYYAVPVAGSSDTLLMTAYMTNRNEVAGKGKNSTWAPSFLIQVLPDGTTKVLAEMTQQGDWIWDESSRTTDTVGTLDTAYLPGENDGYIDWNVIGGYGLKPHTPGQYQPTVPSTPIHTDDIISFEVSFDGHLVIKPVKVNNDSAGRIDQSRNSGGSLNVAFNVYAGGNISVKPSQKSINNTKETKKAHHVSTEKKQKKGNSFFAALLALFSAFCVSIGFK
B7: LivF (protein, UniProt Q8DSU4 1-236)
chain: MAMLKVENLSVHYGVIQAVKDVSFDVNEGEVVSLIGANGAGKTSILRTISGLVRPSSGEINFLGNDIQKAATRKIVASGLSQVPEGRHVFPGLTVLENLEMGAFLSNNREENLARLKRVFERFPRLEERKNQDAATLSGGEQQMLAMGRALMSQPKLLLLDEPSMGLAPIFIQEIFDIIQDIQKQGTTVLLIEQNAKKALSIADRGYVLETGKIVLSGTGKELLASDEVQKAYLGG
B8: GlmM (protein, UniProt Q8DTC6 1-449)
chain: MGKYFGTDGVRGEANVELTPELAFKLGRFGGYVLSQHEPDRPRVFVARDTRISGELLESALVAGLLSVGIEVYKLGVLATPGVSYLVRTEQASAGVMISASHNPALDNGIKFFGGDGFKLADEQEAEIEALLDAKEDDLPRPSAQGLGMVVDYPEGLRKYEKFLVSTGSDLEGMKIAIDAANGAASYSARQVFLDLNADITVIGEEPDGLNINDGVGSTHPEQLQNLVKGSDFVIGLAFDGDSDRLIAVDENGEIVDGDKIMYIIGKYLSEKGRLSKNTIVTTVMSNLGFHKALDRENINKKITAVGDRYVVEEMRRSGYNLGGEQSGHVIIMDYNTTGDGQLTAIQLTKVMKETGKTLSELANEVTIYPQKLVNIYVKNDMKNKAMEVPMIAQIIEKMEAEMAGNGRILVRPSGTEPLLRVMAEAPSTEEVNYYVDTIAKVVKTEIGI
B9: PttB (protein, UniProt I6L905 1-655)
chain: MGKFEKDAKVLLDAIGGKENVSAVTHCATRMRFVLNDESKADVKTIEAIPAVKGTFTNAGQFQIIIGNDVPLFYNDFTAVSGIEGVSKETAKSAAKSHQNPIQRVMTLLAEIFTPIIPAIIVGGLILGFRNVIDQVQWGFLDGQTIAQHSQFWSGISSFLWLPGEAIFQFLPVGIVWSVSRKMGTSQILGIVLGICLVSPQLLNAYNVASTPAAEIAKKWVWDFGFFTVRRIGYQGQVIPALLAGLSLSYLEIFWRKKIPEVVSMIFVPFLSLIPALILAHTVLGPIGWTIGQWISTIVYAGLTGPVKWLFGAIFGALYAPFVITGLHHMTNAIDTQLVADTGGTGLWPMIALSNIAQGSAVFAYYLMNRHEEREAQVSLPATISAYLGVTEPALFGVNIKYVYPLVAGMIGSSIAGFLSVTFNVTANAIGIGGLPGILSIKVKYMLPFFIIMLVAIAVPMVLTVFFRRINFLTKSEDEAHQEKTETAEISASEKTNEPAVGTTFEIKSPLKGQVKPLSEAVDPVFAQGVMGQGVLIDPSEGLLTSPVNGVVSVLFPTKHALGLVTDQGLELLIHIGMDTVNLEGKGFETYVKQGDTIKVGDKLIRFDIDAIHQAGYTTETPVIVTNQNDYQPDVVGSLPREIERGEVLLTASKI
B10: SMU_723 (protein, UniProt Q8DV01 1-893)
chain: MFKKQKRDSFYVQDEKTVLSGLESSKKGLTSTQAKQRLADYGYNELEEDEKRTILAKFIDQFKDLMIIILLVAAALSVITEGMGGLTDAIIILVVVVLNAAFGVYQEGQAEAAIEALKSMSSPHARVRRDGHVTEIDSKELVPGDVVLLEAGDVVPADMRLLEAASLKIEEAALTGESVPVEKSVTVAIASDAGIGDRLNMAYQNSNVTYGRGMGVVTNTGMYTEVGHIAGMLANADETDTPLKQSLDNLSKVLTYVIIIIAIITCLVGIFVRHEEPLEGLMVAVALAVAAIPEGLPAIVTVVLSLGTKTLAKRQSIVRKLPAVETLGSTEIIASDKTGTLTMNQMTVEKVYYNGRLVDANDDIDVNNMALRVMNFANDSKVDANGKLIGDPTETALVQYGFDHNFDIREVLKAELRVAELPFDSDRKLMSTIHKLDGEKYLIAVKGAPDQLLKRITQIEIDGSIRPITEDDKKAILDMNKSLAKQALRVLMIAYKYESEIPKLETAVVENDLIFAGLVGMIDPERPEAAEAVHVAKEAGIRPIMITGDHQDTAEAIAKRLGIIDDDGIDHVFTGAELNELSDEEFQKVFKQYSVYARVSPEHKVRIVKAWQNDGKIVAMTGDGVNDAPSLKTADIGIGMGITGTEVSKGASDMVLADDNFATIIVAVEEGRKVFSNIQKSIQYLLSANMAEVFTIFFATLFGWDVLQPVHLLWINLVTDTLPAIALGVEPAEPGVMTHKPRGRKSSFFSGGVMGAIIYQGILQTLLVLGVYGWAVFFPEHATRTEIHADALTMAFATLGLIQLVHAYNVKSVYQSIFKVGFFKNKTFNWALPTALIIMLATIVIPGFNRFFHVSHLSVTQWCVVVGGSLAMFVIVEIVKAIQRVLGQDQKAI

Results are given in words; binding and its absence hold for the method and conditions named. In cells and extracts the contact can be indirect. A yes stands for co-enrichment or nearness to the bait. Other partners may have been found.

The first assay deals with DacA-FLAG (Streptococcus mutans UA159). Nature of the assay: affinity purification with mass spectrometry; anti-FLAG M2 affinity gel on lysate of the DacA-FLAG strain, FLAG peptide elution; whether these hits came from the non-crosslinked or the crosslinked samples is not given.
Regarding B1, the binding entry was “binds”.

Turning to B2, the binding entry was “binds”.

As for B3, the binding result is listed as “binds”.

Consider B4, for which the binding entry is given as “binds”.

For the molecule B5, the binding result is “binds”.

Turning to B6, the binding entry is on record as “binds”.

With B7, the binding result is given as “binds”.

Another assay shares this target. Nature of the assay: affinity purification with mass spectrometry; crosslinked; cells in PBS with 1% formaldehyde 20 min at room temperature, quenched with 0.125 M glycine, then lysate on anti-FLAG M2 affinity gel 3 h at 4°C, FLAG peptide elution; UA159 as no-FLAG control; hits at least twofold enriched with spectral counts >10.
With B8, the binding entry is recorded as “binds”.

As to B9, the binding entry is on record as “binds”.

For B10, the binding entry is on record as “binds”.

A further assay shares this target. Put plainly: affinity purification with mass spectrometry; non-crosslinked; lysate of mid-log S. mutans DacA-FLAG strain (150 mM NaCl, 10% glycerol, 100 mM Na-phosphate pH 7.0, 1% Triton X-100) on anti-FLAG M2 affinity gel 3 h at 4°C, FLAG peptide elution; UA159 as no-FLAG control; hits at least twofold enriched with spectral counts >10.
For B9, the binding entry is given as “binds”.

Consider B10, for which the binding result is on record as “binds”.
